In PubChem BioAssay AID1347075 (National Center for Advancing Translational Sciences (NCATS), 2019):
Values joined by “and” are separate entries in the source; they are usually repeats but may differ in a detail not shown here. Identical values can stand only once. Among all 400,000 compounds or so, about 5,500 (1.4%) were called active. Inconclusive results, whose numbers are uncertain, are shown with a selection of clear calls. Calls come from the whole dose curve; as a rule, active = well fitted cell-killing curve with a large enough effect; inconclusive = small, poorly fitted or top-dose-only effect, or effect the other way; inactive = flat fitted curve, though single readings scatter. Potencies beside an inconclusive call are fits to weak or partial responses and may not hold up.
% is set by controls: 0 for no effect and ±100 for the full control effect; potency is the fitted concentration of half-maximal effect.

Assay: qHTS assay for MDR1-selective chemotherapeutics: Primary screen using the parental adenocarcinoma cell KB-3-1; note: nearly all actives have a fitted effect of over 60% in size
Details: KB-3-1 viability, CellTiter-Glo ATP luminescence, 72 h; activity change, negative = cytotoxic: at 46.1 µM (top of the series)
Procedure, shortened: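 72 h, 37 °C compound treatment of KB-3-1 parental cells; CellTiter-Glo added, 10 min, luminescence read. Data corrected against DMSO-only plates and normalized before curve fitting.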
With `COc1ccc(NC(=O)N2CCN(c3nc(-c4cccc(OC)c4)cs3)CC2)cc1` the Potency was inconclusive: 16.4 µM [cytotoxic, single point].
For `O=C(Nc1ncc2c(n1)-c1ccccc1OC2)c1cccc([N+](=O)[O-])c1`, the Potency was “inactive”.
In the case of `CCc1ccc(NC(=O)c2ccc(F)c(S(=O)(=O)NCC3COc4ccccc4O3)c2)cc1` (stereo not given), the Potency is reported as inconclusive: 20.6 µM [cytotoxic, single point].
For `CCCCSC1=C(C#N)C(c2ccccc2C)CC(=O)N1` (stereo not given), the activity change, negative = cytotoxic was inconclusive: -9.81%.
For `CC(C)CC(NC(=O)OCc1ccccc1)C(=O)NC(Cc1c[nH]c2ccccc12)C(=O)O` (stereo not given), the Potency was “inactive”.
For `Nc1nc(NCCCN2CCOCC2)nc(Nc2ccccc2)c1[N+](=O)[O-]`, the Potency was inconclusive: 11.6 µM [rising, partial curve].
In the case of `CCc1cccc(C)c1NC(=O)c1cnn(-c2ccc(F)cc2)c1-n1cccc1`, the Potency is reported as inconclusive: 29.1 µM [cytotoxic, single point].
For `Cn1c(Cc2ccccc2)nnc1SCC(=O)c1ccc(Br)s1`, the Potency was inconclusive: 25.9 µM [cytotoxic, single point].
In the case of `CC1(C)C(C=C(Cl)Cl)C1C(=O)N(Cc1ccc(Cl)cc1)C1CCS(=O)(=O)C1` (stereo not given), the Potency is reported as inconclusive: 18.4 µM [cytotoxic, single point].
With `CCOc1ccc(S(=O)(=O)Nc2ccc(-c3ccc(N4CCCC4)nn3)cc2)cc1` the Potency was inconclusive: 4.11 µM [rising, full curve, poor fit].
For `CC1=C(C)/C(=N\OS(=O)(=O)c2ccc(C)cc2)C=CC1=O`, the Potency was inconclusive: 20.6 µM [cytotoxic, single point].
For `CCOC(=O)c1sc(N)c(C(=O)Nc2ccccc2OC)c1C`, the Potency was inconclusive: 9.2 µM [cytotoxic, partial curve, poor fit].
In the case of `COc1ccccc1NC(=O)Cc1csc(NC(=S)Nc2ccc(C)cc2)n1`, the Potency is reported as inconclusive: 29.1 µM [cytotoxic, single point].
In the case of `COc1ccc(S(=O)(=O)N2CCc3ccccc32)cc1[N+](=O)[O-]`, the Potency is reported as inconclusive: 29.1 µM [cytotoxic, single point].
For `CCN(Cc1ccccc1)S(=O)(=O)c1ccc(C(=O)Nc2nnc(C)o2)cc1`, the Potency was inconclusive: 18.4 µM [cytotoxic, single point].
With `COc1ccc(OCC(=O)N(C)CC2COc3ccccc3O2)cc1` (stereo not given) the activity change, negative = cytotoxic was inconclusive: -20.7%.
With `NCC(=O)c1cccc2ccc[n+]([O-])c12` the Potency was inconclusive: 0.231 µM [rising, full curve].
For `O=C(NCC(c1cccs1)N1CCOCC1)c1ccc(OCc2ccccc2)cc1` (stereo not given), the Potency was “inactive”.
With `COc1cccc(NC(=O)CSc2nc3c(c(=O)n2C)SC(C)C3)c1` (stereo not given) the Potency was “inactive”.
For `O=C(NCc1ccc(F)cc1)c1cc(C2CCCCN2S(=O)(=O)c2cccs2)on1` (stereo not given), the Potency was “inactive”.
With `COc1cc(-c2c(-c3ccc4c(c3)OCO4)noc2C)ccc1F` the Potency was active: 3.26 µM and inconclusive: 16.4 µM [cytotoxic, single point].
With `Cc1cccc(NC(=O)[C@@H](CC(C)C)NC(=O)[C@@H]2Cc3ccccc3CN2)c1` the Potency was “inactive”.
For `CCOC(=O)N1CCC(NC(=O)c2cc(S(=O)(=O)N3CCc4ccccc43)cn2C)CC1`, the Potency was inconclusive: 23.1 µM [cytotoxic, partial curve].
With `CCN1CCc2nc(NC(=O)c3cc(F)c(F)cc3Cl)sc2C1` the Potency was inconclusive: 23.1 µM [rising, single point].
In the case of `Cc1ccccc1C(=O)Nc1cccc(C(=O)N/N=C/c2ccccn2)c1`, the Potency is reported as “inactive”.
For `COc1ccc(Cl)cc1NC(=S)N(CCCN1CCOCC1)Cc1cn(C)c2ccccc12`, the Potency was inconclusive: 29.1 µM [rising, single point].
For `Cc1ccc(-c2nc(C(Cl)Cl)c3ccccc3n2)cc1`, the Potency was active: 20.6 µM.
With `O=C(CN1N=C(c2ccc(Cl)cc2)CCC1=O)NCc1cccnc1` the Potency was “inactive”.
In the case of `COc1cccc(-c2nc(C(N)=O)c3c(n2)n(-c2ccc4c(c2)OCO4)c(=O)n3C)c1OC`, the Potency is reported as “inactive”.
With `S=C1NC2(CCCCC2)Nc2ccccc21` the Potency was “inactive”.
In the case of `O=[N+]([O-])C1C(c2ccccc2)C12c1ccccc1-c1ccccc12` (stereo not given), the Potency is reported as inconclusive: 29.1 µM [cytotoxic, single point].
In the case of `COc1ccc(C(=O)Nc2cccc3c2CCCC3)cc1`, the Potency is reported as active: 23.1 µM.
With `NC(=O)c1ccc[n+](CC(=O)Nc2ccccc2C(=O)O)c1` the Potency was “inactive”.
In the case of `CC(=O)N(C)C1=C(N2CCOCC2)C(=O)c2ccccc2C1=O`, the Potency is reported as active: 1.16 µM.
With `CC(C)CN1CC(Br)C(=O)NC1=O` (stereo not given) the Potency was “inactive”.
With `O=c1n(CC2CO2)c(=O)n(CC2CO2)c(=O)n1CC1CO1` (stereo not given) the Potency was inconclusive: 20.6 µM [cytotoxic, single point] and inconclusive: 23.1 µM [cytotoxic, single point].
In the case of `CC[C@@]1(C(=O)OC)N[C@H](CN(C)C(=O)Nc2ccc(OC)cc2)[C@@H]2C(=O)N(C)C(=O)[C@@H]21`, the Potency is reported as “inactive”.
For `CCOc1ccc(-c2cc(C(F)(F)F)c(C#N)c(SCC(=O)Nc3ccccc3)n2)cc1`, the Potency was inconclusive: 29.1 µM [rising, single point].
In the case of `Cc1cc(C)c2oc(-c3ccc(Cl)c(NC(=O)c4ccc(C#N)cc4F)c3)nc2c1`, the Potency is reported as inconclusive: 9.2 µM [cytotoxic, partial curve].
In the case of `O=C(OC(c1ccc(NS(=O)(=O)c2ccccc2)cc1)(C(F)(F)F)C(F)(F)F)c1ccccc1`, the Potency is reported as inconclusive: 7.31 µM [cytotoxic, partial curve, poor fit].
In the case of `CC1=CC(C)(C)N(S(=O)(=O)c2ccc(C)cc2)c2ccc(C)cc21`, the Potency is reported as active: 6.51 µM.
For `Cc1cccc(NC(=O)CSc2nc(C)c(Cc3ccccc3)c(=O)[nH]2)c1`, the Potency was inconclusive: 29.1 µM [cytotoxic, partial curve, poor fit].
With `Cc1ccc(C)c(S(=O)(=O)Nc2ccc3sc(C)nc3c2)c1` the Potency was inconclusive: 35.5 µM [cytotoxic, single point].
With `O=C1OCC/C1=C\c1ccccc1` the Potency was “inactive”.
In the case of `COc1cc(/C=C/c2ccnc3ccccc23)cc(OC)c1OC`, the Potency is reported as inconclusive: 9.2 µM [cytotoxic, partial curve, poor fit].
In the case of `Cc1ccc(NC(=O)c2ccc3nc[nH]c3c2)nc1`, the Potency is reported as inconclusive: 29.1 µM [cytotoxic, single point].
For `CC(C)CC1NC(=O)c2cc3ccccc3cc2-n2c1nc1ccc(Cl)cc1c2=O` (stereo not given), the Potency was inconclusive: 13 µM [cytotoxic, partial curve].
With `C=CCSc1nc2c(c(=O)n(C)c(=O)n2C)n1CC` the activity change, negative = cytotoxic was inconclusive: 9.35%.
In the case of `CC(C)(C)c1cc(C(=O)NNC(=O)Nc2ccccc2)n(Cc2ccccc2)n1`, the Potency is reported as “inactive”.
In the case of `CC(=O)Nc1cc(-c2ccc(N3CCN(C)CC3)cc2)cn2c(-c3ccccc3)cnc12`, the Potency is reported as “inactive”.
In the case of `O=C(CSc1nc2c(c(=O)[nH]1)CN(Cc1ccc3c(c1)OCO3)CC2)Nc1ccc(F)cc1`, the Potency is reported as inconclusive: 29.1 µM [cytotoxic, single point].
With `CC(C)(C)N(NC(=O)Nc1ccc(Cl)c(Cl)c1)C(=O)c1ccccc1` the Potency was inconclusive: 23.1 µM [cytotoxic, partial curve, poor fit].
In the case of `O=C(NC1CCCCC1)C(c1ccccc1F)n1c(=O)c(-c2cc3ccccc3[nH]2)nc2ccccc21` (stereo not given), the Potency is reported as inconclusive: 20.6 µM [cytotoxic, single point].
For `Cc1ccc(Cl)cc1NS(=O)(=O)c1ccccc1`, the Potency was “inactive”.
In the case of `Cc1c(Cl)cccc1NC(=O)CSC(N)=O`, the Potency is reported as “inactive”.
In the case of `O=C(NC(=S)Nc1ccc(Cl)cn1)C(c1ccccc1)c1ccccc1`, the Potency is reported as active: 18.4 µM.
In the case of `COc1ccc(C2c3c(ncn(CCCO)c3=N)Oc3ccc4ccccc4c32)cc1OC` (stereo not given), the Potency is reported as inconclusive: 29.1 µM [cytotoxic, single point].
In the case of `CCc1ccc(NC(=O)c2nc(SCc3ccccc3F)ncc2Cl)cc1`, the Potency is reported as “inactive”.
In the case of `COC(=O)c1cc(NC(=O)CN(c2ccccc2)S(=O)(=O)N(C)C)ccc1Cl`, the Potency is reported as inconclusive: 0.411 µM [cytotoxic, full curve].
In the case of `O=C(CSc1nc2ccccc2nc1N1CCCCC1)N1CCN(c2ccccc2)CC1`, the Potency is reported as inconclusive: 14.6 µM [cytotoxic, partial curve].
For `O=C(c1cc(-c2ccc(O)cc2)on1)N1CCN(c2ccc(F)cc2)CC1`, the Potency was inconclusive: 0.0073 µM [cytotoxic, full curve].
In the case of `NS(=O)(=O)c1ccc(CCNc2nc3c(-c4cccc(F)c4)nnn3c3ccc(Cl)cc23)cc1`, the Potency is reported as inconclusive: 29.1 µM [rising, single point].
In the case of `CCC1C(c2ccccc2)N(C)C(c2ccccc2)CC1(O)c1ccccc1` (stereo not given), the Potency is reported as inconclusive: 29.1 µM [cytotoxic, single point].
With `O=S(=O)(Nc1ccc2c(c1)OCCO2)c1ccc(F)cc1` the Potency was “inactive”.
In the case of `CCOC(=O)c1c(C)oc2c(Cl)cc(NS(=O)(=O)c3ccc(Cl)c(C)c3)cc12`, the Potency is reported as inconclusive: 32.6 µM [cytotoxic, single point].
In the case of `COc1ccccc1N(C(=O)c1ccncc1)c1nc(-c2ccc([N+](=O)[O-])cc2)cs1`, the Potency is reported as inconclusive: 2.31 µM [rising, partial curve, poor fit].
With `CC12CCC(O)CC1=CCC1C2CCC2(C)c3[nH]ncc3CC12` (stereo not given) the Potency was “inactive”.
With `CCCOc1ccc(C(=O)C(CN2CCOCC2)c2ccccc2)cc1` (stereo not given) the Potency was inconclusive: 20.6 µM [cytotoxic, single point].
In the case of `O=C(CCCCn1c(=O)[nH]c2ccsc2c1=O)N1CCN(c2cccc(Cl)c2)CC1`, the Potency is reported as inconclusive: 29.1 µM [cytotoxic, single point].
With `Cc1ccc(C(=O)OCC(=O)NCc2cccc(Cl)c2)cc1S(=O)(=O)N1CCCCC1` the Potency was inconclusive: 23.1 µM [cytotoxic, single point].
